Data source: PubChem BioAssay AID504793 (Drosophila RNAi Screening Center, 2011)
Screen: 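Whole-genome screen for parts of the DNA damage checkpoint at G2/M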 (primary screen). Cells: Drosophila S2R+ cells. Reagents: long dsRNA against Drosophila genes, about 0.25 µg dsRNA per well. Timing: 4 days of dsRNA, then 4 hours of drug before read-out. Challenge: doxorubicin 0.5 µM for 4 hours to cause double-strand breaks, in cells also given a low, harmless dose of dsRNA against nbs to sensitise the assay. Detection: 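Per-well count of mitotic cells stained for phospho-histone H3 after doxorubicin exposure, used as mitotic index; counts are raw and not normalised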. Scale: mitotic cells: higher = more cells in mitosis, weaker G2 arrest. Call rule: 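a call needs confirmation in secondary tests, with other dsRNAs and a check of mitotic timing without damage, not just a high primary count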. Calls: active = confirmed in follow-up tests; inactive = not confirmed.
The deposit covers about 23,000 reagents; shown is a random part of those that have a named target and a result. Of all reagents, 62 (0.27%) got an active call. 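Calls come from follow-up tests whose scores are not deposited, so confirmed genes may have low counts here; counts are not normalised per plate.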 Raw values are not corrected between plates. A plus sign joins genes that one reagent is predicted to hit.

How did the screen score Cph (GeneID 31660) [DRSC25005]?
mitotic cells, replicate 1: 11; outcome: inactive

With Cph (GeneID 31660) [DRSC37513], what was measured?
mitotic cells, replicate 1: 10; outcome: inactive

For AANATL7 (GeneID 31236) [DRSC18616], what does the deposit list?
mitotic cells, replicate 1: 9; outcome: inactive

How did the screen score CG10254 (GeneID 42793) [DRSC14153]?
mitotic cells, replicate 1: 2; outcome: inactive

What did the screen give for CG10254 (GeneID 42793) [DRSC29495]?
mitotic cells, replicate 1: 7; outcome: inactive

For PpY-55A (GeneID 48532) [DRSC07513], what was measured?
mitotic cells, replicate 1: 5; outcome: inactive

For PpY-55A (GeneID 48532) [DRSC23328], how do the results read?
mitotic cells, replicate 1: 7; outcome: inactive

What did the screen give for PpY-55A (GeneID 48532) [DRSC26547]?
mitotic cells, replicate 1: 16; outcome: inactive

With ATPsyndelta (GeneID 31950) [DRSC18248], what does the deposit list?
mitotic cells, replicate 1: 10; outcome: inactive

What is on record for Cyp4e1 (GeneID 44632) [DRSC07370]?
mitotic cells, replicate 1: 2; outcome: inactive

With Cyp4e1 (GeneID 44632) [DRSC27154], what does the deposit list?
mitotic cells, replicate 1: 4; outcome: inactive

What is on record for btv (GeneID 35073) [DRSC01615]?
mitotic cells, replicate 1: 8; outcome: inactive

With btv (GeneID 35073) [DRSC02449], how do the results read?
mitotic cells, replicate 1: 1; outcome: inactive

How did the screen score Boh2 (GeneID 34559) [DRSC02777]?
mitotic cells, replicate 1: 2; outcome: inactive

What did the screen give for Ilp2 (GeneID 39150) [DRSC10968]?
mitotic cells, replicate 1: 1; outcome: inactive

For Ilp2 (GeneID 39150) [DRSC29688], what does the deposit list?
mitotic cells, replicate 1: 5; outcome: inactive

With Buffy (GeneID 36251) [DRSC05957], what was measured?
mitotic cells, replicate 1: 5; outcome: inactive

How did the screen score CG14377 + CG14374 [DRSC26405]?
mitotic cells, replicate 1: 5; outcome: inactive

What did the screen give for NaPi-T (GeneID 36651) [DRSC07476]?
mitotic cells, replicate 1: 6; outcome: inactive

How did the screen score NaPi-T (GeneID 36651) [DRSC24468]?
mitotic cells, replicate 1: 9; outcome: inactive

How did the screen score CG10931 (GeneID 37024) [DRSC06015]?
mitotic cells, replicate 1: 5; outcome: inactive

Which result is listed for CG4613 (GeneID 39586) [DRSC10435]?
mitotic cells, replicate 1: 5; outcome: inactive

Which result is listed for CG4613 (GeneID 39586) [DRSC25652]?
mitotic cells, replicate 1: 5; outcome: inactive

Which result is listed for CG15142 (GeneID 35059) [DRSC02443]?
mitotic cells, replicate 1: 2; outcome: inactive

Which result is listed for CG34443 (GeneID 5740580) [DRSC29357]?
mitotic cells, replicate 1: 5; outcome: inactive

For DIP-delta (GeneID 5740816) [DRSC10214], how do the results read?
mitotic cells, replicate 1: 12; outcome: inactive

For DIP-delta (GeneID 5740816) [DRSC10450], what was measured?
mitotic cells, replicate 1: 7; outcome: inactive

With VAChT (GeneID 42795) [DRSC13311], what does the deposit list?
mitotic cells, replicate 1: 12; outcome: inactive

For VAChT (GeneID 42795) [DRSC16608], how do the results read?
mitotic cells, replicate 1: 5; outcome: inactive

With VAChT (GeneID 42795) [DRSC23986], how do the results read?
mitotic cells, replicate 1: 7; outcome: inactive

What did the screen give for CG13931 (GeneID 38212) [DRSC08400]?
mitotic cells, replicate 1: 7; outcome: inactive

With CG13931 (GeneID 38212) [DRSC25534], what was measured?
mitotic cells, replicate 1: 5; outcome: inactive

Which result is listed for Twdlbeta (GeneID 36265) [DRSC07310]?
mitotic cells, replicate 1: 7; outcome: inactive

With Twdlbeta (GeneID 36265) [DRSC25646], how do the results read?
mitotic cells, replicate 1: 1; outcome: inactive

Reformatted: entries from further up
target gene,DRSC id,"mitotic cells, replicate 1",outcome
CG15142 (GeneID 35059),DRSC02443,2,inactive
CG34443 (GeneID 5740580),DRSC29357,5,inactive
